The source of these data is doi:10.1101/2020.12.31.424961.

Like-named read-outs stand apart in the source and are kept apart here. No constants are given. Whether binding was seen depends on the method and setting. Binding seen in cells or lysates may run through a third protein. Some entries that bind do so weakly or less than the wild type.

What all share (assay): pull-down
The target of assay [1] is HCoV-229E N protein, SFB-tagged (HCoV-229E) (UniProt P15130).
For assay [2], the target named is HCoV-HKU1 N protein, SFB-tagged (HCoV-HKU1) (UniProt Q5MQC6).
Assay [3] concerns the target HCoV-NL63 N protein, SFB-tagged (HCoV-NL63) (UniProt Q6Q1R8).
Assay [4] concerns the target SARS-CoV-1 NSP1, SFB-tagged (SARS-CoV-1) (UniProt P0C6X7).
Assay [5] concerns the target SARS-CoV-2 ORF3a, SFB-tagged (SARS-CoV-2) (UniProt P0DTC3).
For assay [6], the target named is HCoV-229E N protein, SFB-tagged (HCoV-229E) (UniProt P15130). This is another data set of the same source.
For assay [7], the target named is HCoV-HKU1 N protein, SFB-tagged (HCoV-HKU1) (UniProt Q5MQC6). The source holds these as a separate data set.
In assay [8] the target is HCoV-NL63 N protein, SFB-tagged (HCoV-NL63) (UniProt Q6Q1R8). The source holds these as a separate data set.
Assay [9] has as its target HCoV-OC43 N protein, SFB-tagged (HCoV-OC43) (UniProt P33469).

As for “Ras-GTPase-activating protein-binding protein 1 (from UniProt Q13283 1-466)”, the binding entry in assay [1], in [2] and in assay [3] was “binds” throughout.

B1: PYCR1 (protein, UniProt P32322 1-319)
chain: MSVGFIGAGQLAFALAKGFTAAGVLAAHKIMASSPDMDLATVSALRKMGVKLTPHNKETVQHSDVLFLAVKPHIIPFILDEIGADIEDRHIVVSCAAGVTISSIEKKLSAFRPAPRVIRCMTNTPVVVREGATVYATGTHAQVEDGRLMEQLLSSVGFCTEVEEDLIDAVTGLSGSGPAYAFTALDALADGGVKMGLPRRLAVRLGAQALLGAAKMLLHSEQHPGQLKDNVSSPGGATIHALHVLESGGFRSLLINAVEASCIRTRELQSMADQEQVSPAAIKKTILDKVKLDSPAGTALSPSGHTKLLPRSLAPAGKD
For the molecule B1, the binding entry in assay [4] is “binds”.

B2: PYCR2 (protein, UniProt Q96C36 1-320)
chain: MSVGFIGAGQLAYALARGFTAAGILSAHKIIASSPEMNLPTVSALRKMGVNLTRSNKETVKHSDVLFLAVKPHIIPFILDEIGADVQARHIVVSCAAGVTISSVEKKLMAFQPAPKVIRCMTNTPVVVQEGATVYATGTHALVEDGQLLEQLMSSVGFCTEVEEDLIDAVTGLSGSGPAYAFMALDALADGGVKMGLPRRLAIQLGAQALLGAAKMLLDSEQHPCQLKDNVCSPGGATIHALHFLESGGFRSLLINAVEASCIRTRELQSMADQEKISPAALKKTLLDRVKLESPTVSTLTPSSPGKLLTRSLALGGKKD
As for B2, in assay [4], the binding result is on record as “binds”.

B3: CLCC1 (protein, UniProt Q96S66 19-551)
chain: HDDDWIDPTDMLNYDAASGTMRKSQAKYGISGEKDVSPDLSCADEISECYHKLDSLTYKIDECEKKKREDYESQSNPVFRRYLNKILIEAGKLGLPDENKGDMHYDAEIILKRETLLEIQKFLNGEDWKPGALDDALSDILINFKFHDFETWKWRFEDSFGVDPYNVLMVLLCLLCIVVLVATELWTYVRWYTQLRRVLIISFLFSLGWNWMYLYKLAFAQHQAEVAKMEPLNNVCAKKMDWTGSIWEWFRSSWTYKDDPCQKYYELLLVNPIWLVPPTKALAVTFTTFVTEPLKHIGKGTGEFIKALMKEIPALLHLPVLIIMALAILSFCYGAGKSVHVLRHIGGPESEPPQALRPRDRRRQEEIDYRPDGGAGDADFHYRGQMGPTEQGPYAKTYEGRREILRERDVDLRFQTGNKSPEVLRAFDVPDAEAREHPTVVPSHKSPVLDTKPKETGGILGEGTPKESSTESSQSAKPVSGQDTSGNTEGSPAAEKAQLKSEAAGSPDQGSTYSPARGVAGPRGQDPVSSPCG
As to B3, in assay [5], the binding entry is listed as “binds”.

B4: Ras-GTPase-activating protein-binding protein 2 (protein, UniProt Q9UN86 1-482)
chain: MVMEKPSPLLVGREFVRQYYTLLNKAPEYLHRFYGRNSSYVHGGVDASGKPQEAVYGQNDIHHKVLSLNFSECHTKIRHVDAHATLSDGVVVQVMGLLSNSGQPERKFMQTFVLAPEGSVPNKFYVHNDMFRYEDEVFGDSEPELDEESEDEVEEEQEERQPSPEPVQENANSGYYEAHPVTNGIEEPLEESSHEPEPEPESETKTEELKPQVEEKNLEELEEKSTTPPPAEPVSLPQEPPKAFSWASVTSKNLPPSGTVSSSGIPPHVKAPVSQPRVEAKPEVQSQPPRVREQRPRERPGFPPRGPRPGRGDMEQNDSDNRRIIRYPDSHQLFVGNLPHDIDENELKEFFMSFGNVVELRINTKGVGGKLPNFGFVVFDDSEPVQRILIAKPIMFRGEVRLNVEEKKTRAARERETRGGGDDRRDIRRNDRGPGGPRGIVGGGMMRDRDGRGPPPRGGMAQKLGSGRGTGQMEGRFTGQRR
Turning to B4, the binding entry in assay [6], in assay [7], in assay [8] and in [9] was “binds” throughout.
